# Some entries share one result that the patent states for a list of compounds.
# Target: T1, recombinant human RPE65 and LRAT (visual cycle isomerase) (Homo sapiens, UniProt Q16518)
# T1 sequence (Q16518 2-533): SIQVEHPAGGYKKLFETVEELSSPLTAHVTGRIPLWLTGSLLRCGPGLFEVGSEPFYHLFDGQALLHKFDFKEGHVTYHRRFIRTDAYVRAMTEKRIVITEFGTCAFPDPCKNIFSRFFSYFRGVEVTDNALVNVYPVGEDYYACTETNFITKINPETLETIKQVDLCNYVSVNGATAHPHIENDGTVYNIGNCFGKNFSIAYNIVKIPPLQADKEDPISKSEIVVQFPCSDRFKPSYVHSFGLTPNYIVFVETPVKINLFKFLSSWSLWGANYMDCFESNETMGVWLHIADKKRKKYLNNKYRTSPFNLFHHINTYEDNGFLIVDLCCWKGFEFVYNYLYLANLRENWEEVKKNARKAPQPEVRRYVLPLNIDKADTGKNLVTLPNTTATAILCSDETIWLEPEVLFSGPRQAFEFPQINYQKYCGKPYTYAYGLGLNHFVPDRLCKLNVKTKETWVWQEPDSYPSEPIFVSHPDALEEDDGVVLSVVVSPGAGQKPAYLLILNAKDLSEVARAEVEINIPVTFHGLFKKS
# Assay: Human in vitro isomerase inhibition assay
# Conditions: 11-cis-retinol by HPLC, 37° C., one hour
row,SMILES,IC50 (μM)
1,"NCC[C@@H](O)c1cccc(OCC2CCCOC2)c1 (mixture of isomers) [Example 3, (1R)-3-Amino-1-(3-((tetrahydro-2H-pyran-3-yl)methoxy)phenyl)propan-1-ol]",≦0.1 μM
2,"NCC[C@@H](O)c1cccc(OCC2CCCSC2)c1 (mixture of isomers) [Example 7, (1R)-3-Amino-1-(3-((tetrahydro-2H-thiopyran-3-yl)methoxy)phenyl)propan-1-ol]",≦0.1 μM
3,"NCC[C@@H](O)c1cccc(OCC2CCCS(=O)(=O)C2)c1 (mixture of isomers) [Example 10, 3-((3-((R)-3-Amino-1-hydroxypropyl)phenoxy)methyl)tetrahydro-2H-thiopyran 1,1-dioxide]",≦0.1 μM
4,"NCC[C@@H](O)c1cccc(OCC2Cc3ccccc3O2)c1 (mixture of isomers) [Example 13, (1R)-3-Amino-1-(3-((2,3-dihydrobenzofuran-2-yl)methoxy)phenyl)propan-1-ol]",≦0.1 μM
5,"NCC[C@@H](O)c1cccc(OCC2CCCO2)c1 (mixture of isomers) [Example 14, (1R)-3-Amino-1-(3-((tetrahydrofuran-2-yl)methoxy)phenyl)propan-1-ol]",≦0.1 μM
6,"NCC[C@@H](O)c1cccc(OCC2COc3ccccc3C2)c1 (mixture of isomers) [Example 19, (1R)-3-Amino-1-(3-(chroman-3-ylmethoxy)phenyl)propan-1-ol]",≦0.1 μM
7,NCC[C@@H](O)c1cccc(OCC2CCOCC2)c1 [Example 1],≦0.1 μM
8,"NCCC(O)c1cccc(OCC2CCOCC2)c1 (stereo not shown) [Example 2, 3-Amino-1-(3-((tetrahydro-2H-pyran-4-yl)methoxy)phenyl)propan-1-ol]",≦0.1 μM
9,"NCC[C@@H](O)c1cccc(OCc2ccncc2)c1 [Example 4, (R)-3-amino-1-(3-(pyridin-4-ylmethoxy)phenyl)propan-1-ol]",≦0.1 μM
10,"NCC[C@@H](O)c1cccc(OCc2cccnc2)c1 [Example 5, (R)-3-Amino-1-(3-(pyridin-3-ylmethoxy)phenyl)propan-1-ol]",≦0.1 μM
11,"NCC[C@@H](O)c1cccc(OCc2ccccn2)c1 [Example 6, (R)-3-amino-1-(3-(pyridin-2-ylmethoxy)phenyl)propan-1-ol]",≦0.1 μM
12,"NCC[C@@H](O)c1cccc(OCC2CCSCC2)c1 [Example 8, (R)-3-Amino-1-(3-((tetrahydro-2H-thiopyran-4-yl)methoxy)phenyl)propan-1-ol]",≦0.1 μM
13,"NCC[C@@H](O)c1cccc(OCC2CCS(=O)(=O)CC2)c1 [Example 9, (R)-4-((3-(3-Amino-1-hydroxypropyl)phenoxy)methyl)tetrahydro-2H-thiopyran 1,1-dioxide]",≦0.1 μM
14,"CC(=O)N1CCC(COc2cccc([C@H](O)CCN)c2)CC1 [Example 11, (R)-1-(4-((3-(3-Amino-1-hydroxypropyl)phenoxy)methyl)piperidin-1-yl)ethanone]",≦0.1 μM
15,"Cc1cccc(COc2cccc([C@H](O)CCN)c2)n1 [Example 12, (R)-3-Amino-1-(3-((6-methylpyridin-2-yl)methoxy)phenyl)propan-1-ol]",≦0.1 μM
16,"COC(=O)N1CCC(COc2cccc([C@H](O)CCN)c2)CC1 [Example 17, (R)-Methyl 4-((3-(3-amino-1-hydroxypropyl)phenoxy)methyl)piperidine-1-carboxylate]",≦0.1 μM
17,"NCC[C@@H](O)c1cccc(NCC2CCOCC2)c1 [Example 23, (R)-3-Amino-1-(3-(((tetrahydro-2H-pyran-4-yl)methyl)amino)phenyl)propan-1-ol]",≦0.1 μM
18,"NCCC(=O)c1cccc(S(=O)(=O)CC2CCCOC2)c1 (stereo not shown) [Example 25, 3-Amino-1-(3-(((tetrahydro-2H-pyran-3-yl)methyl)sulfonyl)phenyl)propan-1-one]",≦0.1 μM
19,"NCCC(=O)c1cccc(S(=O)(=O)CC2CCOCC2)c1 [Example 26, 3-Amino-1-(3-(((tetrahydro-2H-pyran-4-yl)methyl)sulfonyl)phenyl)propan-1-one]",≦0.1 μM
20,"NCC[C@@H](O)c1cccc(OCC2CCCC(=O)N2)c1 (stereo partly drawn) [Example 27, 3-((3-((R)-3-Amino-1-hydroxypropyl)phenoxy)methyl)piperidin-2-one]",≦0.1 μM
21,"NCC[C@@H](O)c1cccc(OCc2cccs2)c1 [Example 28, (R)-3-Amino-1-(3-(thiophen-2-ylmethoxy)phenyl)propan-1-ol]",≦0.1 μM
22,"NCC[C@@H](O)c1cccc(OCc2ccsc2)c1 [Example 29, (R)-3-Amino-1-(3-(thiophen-3-ylmethoxy)phenyl)propan-1-ol]",≦0.1 μM
23,"CC(C)(C)OC(=O)N1CCC(COc2cccc([C@H](O)CCN)c2)CC1 [Example 30, (R)-tert-Butyl 4-((3-(3-amino-1-hydroxypropyl)phenoxy)methyl)piperidine-1-carboxylate]",≦0.1 μM
24,"NC/C=C/c1cccc(OCC2CCOCC2)c1 [Example 31, (E)-3-(3-((Tetrahydro-2H-pyran-4-yl)methoxy)phenyl)prop-2-en-1-amine]",≦0.1 μM
25,"NCCCc1cccc(OCC2CCOCC2)c1 [Example 32, 3-(3-((Tetrahydro-2H-pyran-4-yl)methoxy)phenyl)propan-1-amine]",≦0.1 μM

# Reference: patent US9133154B2, “Substituted 3-phenylpropylamine derivatives for the treatment of ophthalmic diseases and disorders” (Acucela Inc., priority 2013, dated 2015)
